PubChem BioAssay AID504808 | Drosophila RNAi Screening Center – 2011
The screen tested about 21,000 reagents; this is an unselected part of those with a known target gene and a result. Of all reagents, 18 (0.084%) were called active. 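Raw counts without plate normalisation, one of two replicates; the ratio scores behind the calls were not deposited.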 Reagents against one gene are numbered here. A plus sign joins genes that one reagent is predicted to hit. Not given: the amount of reagent, the time to read-out.

- Purpose: 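Genes whose loss lifts activity of an E2F-responsive reporter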 (primary screen)
- Cells: Drosophila S2 cells
- Reagents: long dsRNA against Drosophila genes
- Detection: 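Firefly luciferase driven by E2F sites, normalised to Renilla luciferase on the same minimal promoter, measured by plate reader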
- Direction: E2F firefly: higher = more E2F reporter activity; Renilla normaliser: higher = more normaliser reporter signal
- Rule for the call: 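Called active if the normalised E2F reporter went up by over 50%; the cutoff is arbitrary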

The opening 2 records, to show the layout:
gene knocked down	reagent no.	E2F firefly, rep 1	Renilla normaliser, rep 1	outcome
CG31817 (GeneID 260659)	1	1.31e5	5424	inactive
CG31817 (GeneID 260659)	2	1.35e5	5542	inactive

Main list, from the start:
gene knocked down	reagent no.	E2F firefly, rep 1	Renilla normaliser, rep 1	outcome
CG31817 (GeneID 260659)	1	1.31e5	5424	inactive
CG31817 (GeneID 260659)	2	1.35e5	5542	inactive
Alms1b + Alms1a	1	2046	876	inactive
Tbc1d8-9 (GeneID 40361)	1	86799	3536	inactive
CG8219 (GeneID 38722)	1	1.03e5	4225	inactive
hook (GeneID 35169)	1	84337	4436	inactive
Rpn6 (GeneID 36638)	1	129	32	inactive
CG30350 (GeneID 246556)	1	1.54e5	4708	inactive
CG2641 (GeneID 40921)	1	1.29e5	6135	inactive
CG10428 (GeneID 35150)	1	84826	3679	inactive
Cbp80 (GeneID 44409)	1	8342	792	inactive
CG4627 (GeneID 36457)	1	1.03e5	4108	inactive
Pop2 (GeneID 39366)	1	79675	4119	inactive
Targ3 (GeneID 5740205)	1	86807	3559	inactive
CG6220 (GeneID 36520)	1	1.01e5	4171	inactive
CG3735 (GeneID 37803)	1	87128	3690	inactive
Pp2B-14D (GeneID 32624)	1	2.81e5	7927	inactive
CG4363 (GeneID 37488)	1	93711	4331	inactive
Plekhm1 (GeneID 37520)	1	1.13e5	4504	inactive
CG18545 (GeneID 41264)	1	1.44e5	6428	inactive
DAT (GeneID 36849)	1	1.50e5	5840	inactive
mRpL36 (GeneID 59151)	1	1.08e5	3914	inactive
Grx3 (GeneID 34745)	1	87688	3512	inactive
Eip75B (GeneID 39999)	1	54914	2896	inactive
Tsp74F (GeneID 39995)	1	1.60e5	7953	inactive
scb (GeneID 36692)	1	1.30e5	5705	inactive
scb (GeneID 36692)	2	99723	4213	inactive
CR31958 (GeneID 33603)	1	1.41e5	5560	inactive
CG12590 (GeneID 40618)	1	1.25e5	4994	inactive
Cpr67Fa2 (GeneID 39224)	1	1.23e5	6530	inactive
Nplp4 (GeneID 50190)	1	1.77e5	5769	inactive
CG17145 (GeneID 40215)	1	1.27e5	6245	inactive
CG33301 (GeneID 2768917)	1	1.43e5	5304	inactive
brp (GeneID 35977)	1	1.48e5	5090	inactive
brp (GeneID 35977)	2	1.54e5	5465	inactive
brp (GeneID 35977)	3	1.36e5	5070	inactive
Polr2J (GeneID 35043)	1	1.10e5	5270	inactive
Gr58a (GeneID 117344)	1	1.25e5	4645	inactive
ND6 (retired record) (GeneID 192479)	1	1.29e5	6101	inactive
CG8420 (GeneID 41097)	1	1.26e5	5211	inactive
mRpS9 (GeneID 40932)	1	72715	2974	inactive
mRpS9 (GeneID 40932)	2	1.57e5	7262	inactive
sofe (GeneID 32016)	1	7855	736	inactive
otu (GeneID 31789)	1	77578	5033	inactive
cysu (GeneID 42100)	1	1.07e5	5975	inactive
CG17660 (GeneID 33347)	1	92402	3893	inactive
Rgk3 (GeneID 5740446)	1	1.11e5	4400	inactive
Rgk3 (GeneID 5740446)	2	1.13e5	4692	inactive
Rgk3 (GeneID 5740446)	3	1.11e5	4396	inactive
Rgk3 (GeneID 5740446)	4	99725	4185	inactive
CG31705 (GeneID 34577)	1	60192	3644	inactive
Ref2 (GeneID 34667)	1	1.06e5	4558	inactive
CG13001 (GeneID 32684)	1	2.40e5	8342	inactive
loqs (GeneID 34751)	1	1.04e5	4258	inactive
SWIP (GeneID 32594)	1	1.49e5	6018	inactive
me31B (GeneID 34364)	1	68678	3585	inactive
ND-B18 (GeneID 32434)	1	1.50e5	6240	inactive
CG33269 (GeneID 2768983)	1	90852	6079	inactive
CG7069 (GeneID 42621)	1	68193	3468	inactive
RnpS1 (GeneID 41147)	1	67348	3325	inactive
CG4537 (GeneID 34306)	1	1.45e5	5413	inactive
BoYb (GeneID 40512)	1	73781	3647	inactive
CG32832 (GeneID 318237)	1	1.44e5	6081	inactive
Papss (GeneID 40167)	1	81947	3797	inactive
Alp4 (GeneID 43671)	1	1.25e5	6847	inactive
CG17258 (GeneID 33517)	1	1.19e5	4462	inactive
CG44433 (GeneID 37150)	1	1.47e5	5761	inactive
CG44433 (GeneID 37150)	2	1.53e5	4894	inactive
CG31675 (GeneID 318879)	1	1.23e5	4378	inactive
Ubr1 (GeneID 32687)	1	1.58e5	6002	inactive
Atu (GeneID 40684)	1	60688	3503	inactive
CG7182 (GeneID 38944)	1	81163	3518	inactive
CG14841 (GeneID 41735)	1	99132	5798	inactive
boi (GeneID 31229)	1	1.12e5	5451	inactive
boi (GeneID 31229)	2	1.29e5	5656	inactive
pod1 (GeneID 31620)	1	8176	760	inactive
CG8569 (GeneID 36376)	1	2751	208	inactive
ppk27 (GeneID 38440)	1	98935	4478	inactive
pio (GeneID 37929)	1	80137	3481	inactive
CG4597 (GeneID 38604)	1	88234	3717	inactive
Srg3 (GeneID 39092)	1	1.46e5	5076	inactive
Srg3 (GeneID 39092)	2	59255	2608	inactive
CG14302 (GeneID 42252)	1	1.37e5	6748	inactive
Sf3b3 (GeneID 38093)	1	63304	3594	inactive
CG15461 (GeneID 50122)	1	1.40e5	6653	inactive
mRpS16 (GeneID 36570)	1	95373	4482	inactive
esg (GeneID 34903)	1	1.01e5	3670	inactive
CG13243 (GeneID 34933)	1	89026	3793	inactive
CG13295 (GeneID 38692)	1	79266	3410	inactive
neur (GeneID 41085)	1	65265	2871	inactive
CG2955 (GeneID 33622)	1	85971	3615	inactive
Adck1 (GeneID 37938)	1	86003	3569	inactive
CG9692 (GeneID 39865)	1	1.73e5	9013	inactive
rux (GeneID 31535)	1	6878	832	inactive
Ser8 (GeneID 36489)	1	91731	4310	inactive
RpL31 (GeneID 35988)	1	94473	5673	inactive
nudC (GeneID 39879)	1	1.42e5	7379	inactive
nudC (GeneID 39879)	2	1.54e5	8812	inactive
Gem4b + Gem4c	1	81878	2697	inactive
sona (GeneID 37762)	1	1.09e5	4341	inactive
sona (GeneID 37762)	2	80523	4581	inactive
sona (GeneID 37762)	3	1.05e5	4335	inactive
CG33221 (retired record) (GeneID 2768878)	1	71446	3849	inactive
CG11437 (GeneID 40470)	1	1.10e5	4838	inactive
klhl10 (GeneID 3354863)	1	1.29e5	5512	inactive
klhl10 (GeneID 3354863)	2	94186	3120	inactive
klhl10 (GeneID 3354863)	3	1.41e5	6276	inactive
klhl10 (GeneID 3354863)	4	1.30e5	4437	inactive
